Some of these results come from one statement about several compounds together.
These compounds were tested against T1, human PPARalpha (Homo sapiens, UniProt Q07869) (assay: cellular PPARalpha assay (GAL4 luciferase reporter, stably transfected HEK cell line)). Settings: limits printed with their own units (nM and μM); read-out: PPARalpha EC50 values, range over the examples.
T1 construct: human PPARalpha receptor (amino acids S167-Y468); expressed in transfected cells; plasmid pcDNA3
T1 sequence (Q07869 167-468): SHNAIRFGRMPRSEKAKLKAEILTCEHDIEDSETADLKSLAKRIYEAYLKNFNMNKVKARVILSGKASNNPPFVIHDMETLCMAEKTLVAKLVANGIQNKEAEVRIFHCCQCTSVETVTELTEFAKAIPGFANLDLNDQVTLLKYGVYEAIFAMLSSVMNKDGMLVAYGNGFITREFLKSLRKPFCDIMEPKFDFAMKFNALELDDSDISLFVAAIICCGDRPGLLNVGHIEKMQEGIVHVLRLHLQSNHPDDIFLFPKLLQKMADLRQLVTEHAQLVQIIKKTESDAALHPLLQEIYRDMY
Assay type: cell-based
Method: The activity of the compounds was tested through the determination of EC50 values of PPAR agonists in the cellular PPARalpha assay. The potency of substances which bind to human PPARalpha and activate it in an agonistic manner was analyzed using a stably transfected HEK cell line (HEK=human embryo kidney) which is referred to here as PPARalpha reporter cell line. It contains two genetic elements, a luciferase reporter element (pdeltaM-GAL4-Luc-Zeo) and a PPARalpha fusion protein (GR-GAL4-humanPPARalpha-LBD) which mediates expression of the luciferase reporter element depending on a PPARalpha ligand. The stably and constitutively expressed fusion protein GR-GAL4-humanPPARalpha-LBD binds in the cell nucleus of the PPARalpha reporter cell line via the GAL4 protein portion to the GAL4 DNA binding motifs 5′-upstream of the luciferase reporter element which is stably integrated in the genome of the cell line. There is only weak expression of the luciferase reporter gene in the absence of a PPARalpha ligand if fatty acid-depleted fetal calf serum (cs-FCS) is used in the assay. PPARalpha ligands bind and activate the PPARalpha fusion protein and thereby stimulate the expression of the luciferase reporter gene. The luciferase which is formed can be detected by means of chemiluminescence via an appropriate substrate.
The PPARalpha reporter cell line was prepared in two stages. Firstly, the luciferase reporter element was constructed and stably transfected into HEK cells. For this purpose, five binding sites of the yeast transcription factor GAL4 (Accession # AF264724) were cloned in 5′-upstream of a 68 bp-long minimal MMTV promoter (Accession # V01175). The minimal MMTV promoter section contains a CCAAT box and a TATA element in order to enable efficient transcription by RNA polymerase II. The cloning and sequencing of the GAL4-MMTV construct took place in analogy to the description of Sambrook J. et. al. (Molecular cloning, Cold Spring Harbor Laboratory Press, 1989). Then the complete Photinus pyralis gene (Accession # M15077) was cloned in 3′-downstream of the GAL4-MMTV element. After sequencing, the luciferase reporter element consisting of five GAL4 binding sites, MMTV promoter and luciferase gene was recloned into a plasmid which confers zeocin resistance in order to obtain the plasmid pdeltaM-GAL4-Luc-Zeo. This vector was transfected into HEK cells in accordance with the statements in Ausubel, F. M. et al. (Current protocols in molecular biology, Vol. 1-3, John Wiley & Sons, Inc., 1995).
In a second step, the PPARalpha fusion protein (GR-GAL4-humanPPARalpha-LBD was introduced into the stable cell clone described. For this purpose, initially the cDNA coding for the N-terminal 76 amino acids of the glucocorticoid receptor (Accession # P04150) was linked to the cDNA section coding for amino acids 1-147 of the yeast transcription factor GAL4 (Accession # P04386). The cDNA of the ligand-binding domain of the human PPARalpha receptor (amino acids S167-Y468; Accession # S74349) was cloned in at the 3′-end of this GR-GAL4 construct. The fusion construct prepared in this way (GR-GAL4-humanPPARalpha-LBD) was recloned into the plasmid pcDNA3 (Invitrogen) in order to enable constitutive expression therein by the cytomegalovirus promoter. This plasmid was linearized with a restriction endonuclease and stably transfected into the previously described cell clone containing the luciferase reporter element. The finished PPARalpha reporter cell line which contains a luciferase reporter element and constitutively expresses the PPARalpha fusion protein (GR-GAL4-human PPARalpha-LBD) was isolated by selection with zeocin (0.5 mg/ml) and G418 (0.5 mg/ml).
The activity of PPARalpha agonists was determined in a 3-day assay, which is described below: […]

EC50, ≥ 5 nM:
CCC(Oc1ccc(-c2noc(=O)[nH]2)c(OC)c1)c1sc(-c2ccc(C(F)(F)F)cc2)nc1CN1CCC(C(F)(F)F)CC1 (racemic) [Example 42, 3-(2-Methoxy-4-{1-[2-(4-trifluoromethyl-phenyl)-4-(4-trifluoromethyl-piperidin-1-ylmethyl)-thiazol-5-yl]-propoxy}-phenyl)-4H-1,2,4-oxadiazol-5-one]
Cc1nc(-c2ccc(C(F)(F)F)cc2)sc1C(OCc1ccc(-c2noc(=O)[nH]2)cc1)C(F)(F)C1CC1 (racemic) [Example 32, 3-(4-{2-Cyclopropyl-2,2-difluoro-1-[4-methyl-2-(4-trifluoromethyl-phenyl)-thiazol-5-yl]-ethoxymethyl}-phenyl)-4H-[1,2,4]oxadiazol-5-one]
Cc1nc(-c2ccc(C(F)(F)F)cc2)sc1C(OCc1ccc(-c2noc(=O)[nH]2)c(Cl)n1)C(F)(F)F (racemic) [Example 27, 3-(2-Chloro-6-{2,2,2-trifluoro-1-[4-methyl-2-(4-trifluoromethyl-phenyl)-thiazol-5-yl]-ethoxymethyl}-pyridin-3-yl)-4H-[1,2,4]oxadiazol-5-one]
CCC(Oc1ccc(-c2noc(=O)[nH]2)c(C(F)(F)F)c1)c1sc(-c2ccc(C(F)(F)F)cc2)nc1C (racemic) [Example 18, 3-(4-{1-[4-Methyl-2-(4-trifluoromethyl-phenyl)-thiazol-5-yl]-propoxy}-2-trifluoromethyl-Phenyl)-4H-[1,2,4]oxadiazol-5-one]
Cc1nc(-c2ccc(C(F)(F)F)cc2)sc1C(Oc1ccc(-c2noc(=O)[nH]2)c(Cl)c1)C(C)C (racemic) [Example 2, 3-(2-Chloro-4-{2-methyl-1-[4-methyl-2-(4-trifluoromethyl-phenyl)-thiazol-5-yl]-propoxa}-phenyl)-4H-[1,2,4]oxadiazol-5-one]
Cc1nc(-c2ccc(C(F)(F)F)cc2)sc1C(CC(C)C)Oc1ccc(-c2noc(=O)[nH]2)c(Cl)c1 (racemic) [Example 3, 3-(2-Chloro-4-{3-methyl-1-[4-methyl-2-(4-trifluoromethyl-phenyl)-thiazol-5-yl]-butoxy}-phenyl)-4H-[1,2,4]oxadiazol-5-one]
CCC(Oc1ccc(-c2noc(=O)[nH]2)c(OCC(F)(F)F)c1)c1sc(-c2ccc(C(F)(F)F)cc2)nc1CN1CCC(C(F)(F)F)CC1 (racemic) [Example 44, 3-(2-(2,2,2-Trifluoro-ethoxy)-4-{1-[2-(4-trifluoromethyl-phenyl)-4-(4-trifluoromethyl-piperidin-1-ylmethyl)-thiazol-5-yl]-propoxy}-phenyl)-4H-1,2,4-oxadiazol-5-one]
CCCCC(Cc1ccc(-c2noc(=O)[nH]2)c(F)c1)c1sc(-c2ccc(C(F)(F)F)cc2)nc1C (racemic) [Example 34, 3-(2-Fluoro-4-{2-[4-methyl-2-(4-trifluoromethyl-phenyl)-thiazol-5-yl]-hexyl}-phenyl)-4H-[1,2,4]oxadiazol-5-one]
CCC(Oc1ccc(-c2noc(=O)[nH]2)c(COCC(F)(F)F)c1)c1sc(-c2ccc(C(F)(F)F)cc2)nc1C (racemic) [Example 12, 3-[4-{1-[4-Methyl-2-(4-trifluoromethyl-phenyl)-thiazol-5-yl]-propoxy}-2-(2,2,2-trifluoro-ethoxymethyl)-phenyl]-4H-[1,2,4]oxadiazol-5-one]
CCC(Oc1ccc(-c2noc(=O)[nH]2)c2ccccc12)c1sc(-c2ccc(C(F)(F)F)cc2)nc1C (racemic) [Example 17, 3-(4-{1-[4-Methyl-2-(4-trifluoromethyl-phenyl)-thiazol-5-yl]-propoxy}-naphthalen-1-yl)-4H-[1,2,4]oxadiazol-5-one]

Source: patent US7834030B2, “Phenyl-[1,2,4]-oxadiazol-5-one derivatives, pharmaceutical compositions and therapeutic use thereof” (Sanofi-Aventis, priority 2005, dated 2010)
